Binding data for ten molecules are collected here from publication doi:10.1101/2024.08.18.608474.

Amino acid sequences for entries named in this document (tags omitted). Residues count along the entry.
UniProt Q13443, residues 29-819: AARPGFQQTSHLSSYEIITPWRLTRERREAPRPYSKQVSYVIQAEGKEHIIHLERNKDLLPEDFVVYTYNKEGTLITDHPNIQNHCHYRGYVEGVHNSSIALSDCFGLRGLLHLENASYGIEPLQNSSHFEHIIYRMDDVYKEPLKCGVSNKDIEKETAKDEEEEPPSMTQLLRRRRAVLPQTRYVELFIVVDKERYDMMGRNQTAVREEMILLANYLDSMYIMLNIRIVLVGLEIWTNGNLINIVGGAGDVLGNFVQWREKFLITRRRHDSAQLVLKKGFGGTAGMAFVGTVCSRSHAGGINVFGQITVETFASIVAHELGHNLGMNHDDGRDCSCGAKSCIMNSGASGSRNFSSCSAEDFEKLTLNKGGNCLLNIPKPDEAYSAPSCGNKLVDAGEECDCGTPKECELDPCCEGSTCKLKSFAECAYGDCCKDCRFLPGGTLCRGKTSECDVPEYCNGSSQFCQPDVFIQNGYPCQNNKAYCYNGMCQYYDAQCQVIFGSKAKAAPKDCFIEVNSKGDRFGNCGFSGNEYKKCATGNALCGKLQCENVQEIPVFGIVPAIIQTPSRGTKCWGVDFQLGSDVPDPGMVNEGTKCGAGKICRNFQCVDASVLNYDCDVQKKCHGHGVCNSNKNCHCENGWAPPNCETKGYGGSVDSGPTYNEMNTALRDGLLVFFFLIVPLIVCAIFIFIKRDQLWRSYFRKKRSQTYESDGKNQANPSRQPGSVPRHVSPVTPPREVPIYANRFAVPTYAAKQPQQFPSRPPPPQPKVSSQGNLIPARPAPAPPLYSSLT
UniProt Q7LBC6: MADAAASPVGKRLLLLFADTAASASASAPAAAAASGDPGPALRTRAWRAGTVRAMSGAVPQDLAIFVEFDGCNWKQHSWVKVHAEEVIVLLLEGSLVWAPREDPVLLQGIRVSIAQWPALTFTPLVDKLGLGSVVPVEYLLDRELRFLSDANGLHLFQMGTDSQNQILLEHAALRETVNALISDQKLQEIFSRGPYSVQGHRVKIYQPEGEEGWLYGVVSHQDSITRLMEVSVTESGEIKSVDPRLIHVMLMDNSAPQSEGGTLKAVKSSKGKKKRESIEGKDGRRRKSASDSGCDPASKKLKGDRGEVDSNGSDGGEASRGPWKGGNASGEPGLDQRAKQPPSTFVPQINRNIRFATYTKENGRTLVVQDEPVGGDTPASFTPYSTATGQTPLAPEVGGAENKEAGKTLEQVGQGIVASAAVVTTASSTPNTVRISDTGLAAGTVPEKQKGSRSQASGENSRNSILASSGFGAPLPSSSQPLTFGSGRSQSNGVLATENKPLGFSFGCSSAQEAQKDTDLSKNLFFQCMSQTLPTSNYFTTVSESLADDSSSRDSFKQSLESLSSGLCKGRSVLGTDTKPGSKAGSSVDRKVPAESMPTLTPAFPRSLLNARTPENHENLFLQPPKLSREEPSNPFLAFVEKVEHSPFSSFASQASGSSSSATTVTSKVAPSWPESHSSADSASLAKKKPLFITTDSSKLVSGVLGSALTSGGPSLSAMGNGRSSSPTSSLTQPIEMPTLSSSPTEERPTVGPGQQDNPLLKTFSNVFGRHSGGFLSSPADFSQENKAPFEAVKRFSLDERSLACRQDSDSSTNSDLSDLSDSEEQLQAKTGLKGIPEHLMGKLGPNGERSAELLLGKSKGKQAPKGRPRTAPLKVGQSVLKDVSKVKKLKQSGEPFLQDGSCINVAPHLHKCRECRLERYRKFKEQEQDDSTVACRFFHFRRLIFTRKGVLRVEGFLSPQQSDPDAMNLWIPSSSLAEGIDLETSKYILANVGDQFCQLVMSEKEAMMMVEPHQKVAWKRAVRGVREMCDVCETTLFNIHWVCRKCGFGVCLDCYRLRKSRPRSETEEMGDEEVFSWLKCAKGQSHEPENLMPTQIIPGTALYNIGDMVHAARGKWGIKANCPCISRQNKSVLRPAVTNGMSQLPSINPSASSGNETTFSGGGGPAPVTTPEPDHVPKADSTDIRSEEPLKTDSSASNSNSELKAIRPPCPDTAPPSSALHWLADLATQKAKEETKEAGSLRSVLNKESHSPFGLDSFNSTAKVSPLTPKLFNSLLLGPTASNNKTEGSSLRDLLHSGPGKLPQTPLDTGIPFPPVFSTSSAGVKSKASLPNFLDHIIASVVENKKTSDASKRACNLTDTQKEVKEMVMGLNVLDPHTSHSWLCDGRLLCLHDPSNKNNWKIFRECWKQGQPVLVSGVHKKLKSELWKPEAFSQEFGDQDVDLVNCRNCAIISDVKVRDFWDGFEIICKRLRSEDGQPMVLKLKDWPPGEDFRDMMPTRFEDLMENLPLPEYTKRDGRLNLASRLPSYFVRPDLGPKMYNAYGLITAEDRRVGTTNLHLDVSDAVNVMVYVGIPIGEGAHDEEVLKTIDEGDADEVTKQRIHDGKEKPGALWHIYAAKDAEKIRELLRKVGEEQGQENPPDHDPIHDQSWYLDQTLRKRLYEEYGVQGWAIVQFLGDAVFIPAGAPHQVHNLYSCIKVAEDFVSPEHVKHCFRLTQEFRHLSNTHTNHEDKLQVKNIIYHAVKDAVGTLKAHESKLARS
UniProt Q03164: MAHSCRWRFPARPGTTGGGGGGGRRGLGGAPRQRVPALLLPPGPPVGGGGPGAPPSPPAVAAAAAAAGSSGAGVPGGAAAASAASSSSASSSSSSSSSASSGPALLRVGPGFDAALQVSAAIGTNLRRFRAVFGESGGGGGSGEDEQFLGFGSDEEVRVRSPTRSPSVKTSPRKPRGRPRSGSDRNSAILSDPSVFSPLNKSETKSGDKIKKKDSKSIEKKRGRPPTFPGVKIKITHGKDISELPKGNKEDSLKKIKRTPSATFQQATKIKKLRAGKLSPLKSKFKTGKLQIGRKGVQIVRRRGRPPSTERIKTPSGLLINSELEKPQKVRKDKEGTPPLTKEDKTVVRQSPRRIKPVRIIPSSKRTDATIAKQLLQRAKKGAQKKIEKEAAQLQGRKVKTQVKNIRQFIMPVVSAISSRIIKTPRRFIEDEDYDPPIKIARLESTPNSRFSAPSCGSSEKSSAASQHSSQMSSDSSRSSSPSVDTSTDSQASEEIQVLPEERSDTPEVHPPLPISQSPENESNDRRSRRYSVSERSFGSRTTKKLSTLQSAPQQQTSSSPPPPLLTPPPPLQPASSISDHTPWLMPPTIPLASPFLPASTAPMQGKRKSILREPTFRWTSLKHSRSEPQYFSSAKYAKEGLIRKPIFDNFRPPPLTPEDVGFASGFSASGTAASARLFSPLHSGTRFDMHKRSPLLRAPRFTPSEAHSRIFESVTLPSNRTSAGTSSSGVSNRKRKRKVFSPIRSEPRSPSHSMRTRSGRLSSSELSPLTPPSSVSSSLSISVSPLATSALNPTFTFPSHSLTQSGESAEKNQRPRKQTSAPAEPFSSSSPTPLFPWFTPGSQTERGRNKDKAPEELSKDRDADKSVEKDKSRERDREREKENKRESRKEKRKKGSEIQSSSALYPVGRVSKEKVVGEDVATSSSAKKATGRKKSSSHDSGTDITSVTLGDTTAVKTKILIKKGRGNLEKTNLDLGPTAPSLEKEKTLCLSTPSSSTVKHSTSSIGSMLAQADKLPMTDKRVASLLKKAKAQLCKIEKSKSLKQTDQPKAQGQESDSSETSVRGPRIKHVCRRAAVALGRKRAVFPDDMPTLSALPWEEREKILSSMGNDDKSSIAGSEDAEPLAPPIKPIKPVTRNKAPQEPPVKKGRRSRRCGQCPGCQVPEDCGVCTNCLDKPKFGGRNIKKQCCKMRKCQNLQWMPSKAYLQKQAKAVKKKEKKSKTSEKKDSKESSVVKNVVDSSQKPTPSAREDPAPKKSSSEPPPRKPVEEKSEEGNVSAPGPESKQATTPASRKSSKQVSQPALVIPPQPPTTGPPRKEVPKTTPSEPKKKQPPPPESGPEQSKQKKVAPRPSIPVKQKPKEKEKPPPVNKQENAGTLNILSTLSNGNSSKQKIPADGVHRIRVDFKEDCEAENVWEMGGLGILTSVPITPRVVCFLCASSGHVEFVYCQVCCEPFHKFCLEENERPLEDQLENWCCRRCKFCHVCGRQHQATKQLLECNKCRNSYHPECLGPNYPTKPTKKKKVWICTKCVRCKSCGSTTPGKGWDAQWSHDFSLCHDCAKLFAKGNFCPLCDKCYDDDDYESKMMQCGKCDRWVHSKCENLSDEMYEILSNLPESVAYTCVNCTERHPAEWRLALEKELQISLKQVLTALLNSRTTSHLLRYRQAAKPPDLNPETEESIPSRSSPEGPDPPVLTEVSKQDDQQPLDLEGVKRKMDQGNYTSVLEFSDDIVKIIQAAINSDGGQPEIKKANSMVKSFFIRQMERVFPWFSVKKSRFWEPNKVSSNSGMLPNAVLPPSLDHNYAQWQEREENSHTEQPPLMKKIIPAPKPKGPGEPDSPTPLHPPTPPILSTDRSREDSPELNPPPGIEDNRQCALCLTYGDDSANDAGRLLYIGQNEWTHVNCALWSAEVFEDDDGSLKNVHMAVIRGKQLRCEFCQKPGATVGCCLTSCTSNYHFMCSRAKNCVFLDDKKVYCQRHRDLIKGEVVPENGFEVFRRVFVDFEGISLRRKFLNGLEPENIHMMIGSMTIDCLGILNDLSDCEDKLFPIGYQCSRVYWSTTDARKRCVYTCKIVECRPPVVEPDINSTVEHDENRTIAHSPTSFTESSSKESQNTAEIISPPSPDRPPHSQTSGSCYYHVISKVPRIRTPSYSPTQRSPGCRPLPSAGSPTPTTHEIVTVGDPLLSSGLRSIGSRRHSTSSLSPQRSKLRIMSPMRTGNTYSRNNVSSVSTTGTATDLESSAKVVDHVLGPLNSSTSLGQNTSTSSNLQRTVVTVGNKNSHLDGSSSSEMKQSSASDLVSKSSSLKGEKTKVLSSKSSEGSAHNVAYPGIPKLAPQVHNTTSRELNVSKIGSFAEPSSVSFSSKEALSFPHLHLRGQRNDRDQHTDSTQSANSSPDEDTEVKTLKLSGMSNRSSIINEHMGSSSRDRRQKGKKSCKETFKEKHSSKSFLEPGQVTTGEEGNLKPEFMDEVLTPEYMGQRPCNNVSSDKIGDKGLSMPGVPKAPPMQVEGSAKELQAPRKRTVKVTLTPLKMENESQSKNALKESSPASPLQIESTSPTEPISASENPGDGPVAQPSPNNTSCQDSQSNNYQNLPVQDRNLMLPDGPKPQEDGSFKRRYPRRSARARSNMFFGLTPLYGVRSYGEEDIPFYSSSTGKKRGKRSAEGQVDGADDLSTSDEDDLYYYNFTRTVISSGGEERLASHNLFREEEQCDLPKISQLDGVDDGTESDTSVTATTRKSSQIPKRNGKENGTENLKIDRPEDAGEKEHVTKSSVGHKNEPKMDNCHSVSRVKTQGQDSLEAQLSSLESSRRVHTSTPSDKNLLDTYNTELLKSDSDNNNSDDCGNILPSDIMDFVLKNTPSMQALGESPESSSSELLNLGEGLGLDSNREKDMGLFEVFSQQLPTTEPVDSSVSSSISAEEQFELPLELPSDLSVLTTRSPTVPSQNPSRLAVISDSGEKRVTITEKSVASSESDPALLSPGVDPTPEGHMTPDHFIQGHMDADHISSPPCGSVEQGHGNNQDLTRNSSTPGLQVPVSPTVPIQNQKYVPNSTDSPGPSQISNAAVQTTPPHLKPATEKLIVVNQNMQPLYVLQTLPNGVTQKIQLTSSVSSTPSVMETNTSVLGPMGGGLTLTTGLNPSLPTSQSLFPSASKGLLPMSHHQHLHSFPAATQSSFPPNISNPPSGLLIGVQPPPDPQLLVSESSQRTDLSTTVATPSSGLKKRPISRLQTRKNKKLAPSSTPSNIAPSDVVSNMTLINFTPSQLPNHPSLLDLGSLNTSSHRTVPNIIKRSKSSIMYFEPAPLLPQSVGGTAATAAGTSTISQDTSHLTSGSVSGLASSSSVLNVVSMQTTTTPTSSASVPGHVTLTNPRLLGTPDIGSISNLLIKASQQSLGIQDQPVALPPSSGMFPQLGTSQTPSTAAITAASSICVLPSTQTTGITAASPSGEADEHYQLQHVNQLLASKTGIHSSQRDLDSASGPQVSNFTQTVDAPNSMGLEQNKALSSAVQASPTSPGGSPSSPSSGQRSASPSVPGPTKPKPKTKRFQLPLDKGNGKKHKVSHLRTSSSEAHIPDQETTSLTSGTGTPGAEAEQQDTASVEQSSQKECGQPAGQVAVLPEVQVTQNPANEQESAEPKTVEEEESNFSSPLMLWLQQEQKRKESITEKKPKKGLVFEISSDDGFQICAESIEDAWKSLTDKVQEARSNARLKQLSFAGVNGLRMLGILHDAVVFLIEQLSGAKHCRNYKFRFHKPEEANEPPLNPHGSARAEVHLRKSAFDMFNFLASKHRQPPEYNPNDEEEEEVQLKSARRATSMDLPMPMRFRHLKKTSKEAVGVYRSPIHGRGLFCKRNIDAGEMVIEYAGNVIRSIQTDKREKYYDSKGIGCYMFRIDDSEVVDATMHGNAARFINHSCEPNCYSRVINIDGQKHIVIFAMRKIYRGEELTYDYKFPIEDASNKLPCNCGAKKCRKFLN

Results are given in words; binding and its absence hold for the method and conditions named. In cells and extracts the contact can be indirect. A yes stands for co-enrichment or nearness to the bait. Other partners may have been found. For some of these results: No binding means not detected with the bait.

The target of assay [1] is Adam13-BioID (Xenopus laevis) (UniProt O12960). Description: proximity labelling.
In assay [2] the target is human ADAM9 (human (endogenous in HEK293T)) (UniProt Q13443). Description: affinity purification with mass spectrometry.
Assay [3] concerns the target Adam13 (Xenopus laevis adam13.L) (Xenopus laevis) (UniProt O12960). Put plainly: affinity purification with mass spectrometry.
Assay [4] has as its target Adam13 mutant lacking the cytoplasmic domain (Xenopus laevis). Description: affinity purification with mass spectrometry.

Take KDM3B (from UniProt Q7LBC6 1-1761): in assay [1], the binding result is given as “binds”.

On to KDM4B (from UniProt O94953 1-1096), for which, in assay [1], the binding result is on record as “binds”. With KMT2A (from UniProt Q03164 1-3969), the binding result in assay [1] and in assay [2] was “binds” each time.

In the case of PABPC1 (from UniProt P11940 1-636), the binding entry in assay [2] and in assay [3] was “binds” each time. Regarding PACSIN2 (from UniProt Q9UNF0 1-486), the binding result in assay [1] is on record as “binds”. With PTBP1 (from UniProt P26599 1-557), the binding entry in assay [2] and in assay [3] was “binds” in each case.

Regarding SRSF1 (from UniProt Q07955 1-248), in assay [3], the binding entry is “binds”.

B1: SRSF7 (protein, UniProt Q16629 1-238)
chain: MSRYGRYGGETKVYVGNLGTGAGKGELERAFSYYGPLRTVWIARNPPGFAFVEFEDPRDAEDAVRGLDGKVICGSRVRVELSTGMPRRSRFDRPPARRPFDPNDRCYECGEKGHYAYDCHRYSRRRRSRSRSRSHSRSRGRRYSRSRSRSRGRRSRSASPRRSRSISLRRSRSASLRRSRSGSIKGSRYFQSPSRSRSRSRSISRPRSSRSKSRSPSPKRSRSPSGSPRRSASPERMD
With B1, the results for the binding entry in assay [4] and in assay [3] were “no binding” and “binds”, respectively.

B2: SRSF3 (protein, UniProt P84103 1-164)
chain: MHRDSCPLDCKVYVGNLGNNGNKTELERAFGYYGPLRSVWVARNPPGFAFVEFEDPRDAADAVRELDGRTLCGCRVRVELSNGEKRSRNRGPPPSWGRRPRDDYRRRSPPPRRRSPRRRSFSRSRSRSLSRDRRRERSLSRERNHKPSRSFSRSRSRSRSNERK
B2: the binding entry in assay [4] is “no binding”; in assay [3], “binds”.

B3: SART1 (protein, UniProt O43290 1-800)
chain: MGSSKKHRGEKEAAGTTAAAGTGGATEQPPRHREHKKHKHRSGGSGGSGGERRKRSRERGGERGSGRRGAEAEARSSTHGRERSQAEPSERRVKREKRDDGYEAAASSKTSSGDASSLSIEETNKLRAKLGLKPLEVNAIKKEAGTKEEPVTADVINPMALRQREELREKLAAAKEKRLLNQKLGKIKTLGEDDPWLDDTAAWIERSRQLQKEKDLAEKRAKLLEEMDQEFGVSTLVEEEFGQRRQDLYSARDLQGLTVEHAIDSFREGETMILTLKDKGVLQEEEDVLVNVNLVDKERAEKNVELRKKKPDYLPYAEDESVDDLAQQKPRSILSKYDEELEGERPHSFRLEQGGTADGLRERELEEIRAKLRLQAQSLSTVGPRLASEYLTPEEMVTFKKTKRRVKKIRKKEKEVVVRADDLLPLGDQTQDGDFGSRLRGRGRRRVSEVEEEKEPVPQPLPSDDTRVENMDISDEEEGGAPPPGSPQVLEEDEAELELQKQLEKGRRLRQLQQLQQLRDSGEKVVEIVKKLESRQRGWEEDEDPERKGAIVFNATSEFCRTLGEIPTYGLAGNREEQEELMDFERDEERSANGGSESDGEENIGWSTVNLDEEKQQQDFSASSTTILDEEPIVNRGLAAALLLCQNKGLLETTVQKVARVKAPNKSLPSAVYCIEDKMAIDDKYSRREEYRGFTQDFKEKDGYKPDVKIEYVDETGRKLTPKEAFRQLSHRFHGKGSGKMKTERRMKKLDEEALLKKMSSSDTPLGTVALLQEKQKAQKTPYIVLSGSGKSMNANTITK
On to B3, for which the binding entry in assay [2] and in assay [3] was “binds” throughout.
